These are yes or no findings as the source states them, for the method shown. In cells and extracts the contact can be indirect. Some binding calls cover weakened binding; strength is not graded here.
Molecular target: T1, CRTC1 (CREB-regulated transcription coactivator 1) (human) (UniProt Q6UUV9)
T1 sequence: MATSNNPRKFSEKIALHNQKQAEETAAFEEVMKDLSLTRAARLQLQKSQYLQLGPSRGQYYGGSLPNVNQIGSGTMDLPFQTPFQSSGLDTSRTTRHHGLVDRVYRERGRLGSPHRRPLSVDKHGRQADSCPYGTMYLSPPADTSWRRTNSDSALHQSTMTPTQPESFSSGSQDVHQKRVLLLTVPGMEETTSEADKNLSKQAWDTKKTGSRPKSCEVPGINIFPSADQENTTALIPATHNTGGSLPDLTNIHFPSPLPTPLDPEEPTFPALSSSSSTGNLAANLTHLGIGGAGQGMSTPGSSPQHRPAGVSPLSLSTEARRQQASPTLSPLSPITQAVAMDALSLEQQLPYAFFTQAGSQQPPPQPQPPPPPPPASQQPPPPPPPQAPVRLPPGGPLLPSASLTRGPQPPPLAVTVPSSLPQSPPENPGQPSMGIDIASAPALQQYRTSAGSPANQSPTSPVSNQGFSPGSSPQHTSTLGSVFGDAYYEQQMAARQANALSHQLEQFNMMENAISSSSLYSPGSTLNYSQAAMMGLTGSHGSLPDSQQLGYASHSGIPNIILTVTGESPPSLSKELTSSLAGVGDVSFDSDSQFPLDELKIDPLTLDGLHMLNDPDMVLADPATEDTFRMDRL
Assay: co-immunoprecipitation with anti-PAK4 in SH-SY5Y cells, and His pull-down of GST-PAK4 on His-CRTC1-bound Ni-NTA beads; immunoblot

Chains of the proteins cited; added tags and fusions are not shown. Lines headed by an entry give the natural chain unless they say otherwise; changes in a name come on top.
UniProt O96013: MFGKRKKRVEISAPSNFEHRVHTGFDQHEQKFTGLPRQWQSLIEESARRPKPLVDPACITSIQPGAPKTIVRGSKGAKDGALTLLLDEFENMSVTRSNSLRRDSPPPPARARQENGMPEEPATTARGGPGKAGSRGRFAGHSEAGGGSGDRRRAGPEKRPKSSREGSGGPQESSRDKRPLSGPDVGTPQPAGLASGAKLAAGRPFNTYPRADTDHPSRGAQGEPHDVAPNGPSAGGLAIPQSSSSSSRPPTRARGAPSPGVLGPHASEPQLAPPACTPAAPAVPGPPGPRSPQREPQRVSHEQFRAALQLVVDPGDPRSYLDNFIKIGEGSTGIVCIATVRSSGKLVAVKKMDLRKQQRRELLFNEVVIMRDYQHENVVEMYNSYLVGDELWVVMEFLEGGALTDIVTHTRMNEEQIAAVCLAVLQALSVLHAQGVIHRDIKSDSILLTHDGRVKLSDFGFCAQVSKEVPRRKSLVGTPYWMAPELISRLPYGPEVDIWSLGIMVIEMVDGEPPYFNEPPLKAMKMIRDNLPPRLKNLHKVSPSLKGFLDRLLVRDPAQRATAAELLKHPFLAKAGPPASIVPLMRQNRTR

Substance: PAK4 (p21-activated kinase 4) (from UniProt O96013 1-591) (enzyme)
- binding: binds

— patent US20190017997A1
